Paper PMC8698288

By UniProt entry, the sequences of proteins in these tests, tags left out. Where a name states a change or a piece, a line headed by the entry shows the natural chain unless it says otherwise.
UniProt A0A125YJT8: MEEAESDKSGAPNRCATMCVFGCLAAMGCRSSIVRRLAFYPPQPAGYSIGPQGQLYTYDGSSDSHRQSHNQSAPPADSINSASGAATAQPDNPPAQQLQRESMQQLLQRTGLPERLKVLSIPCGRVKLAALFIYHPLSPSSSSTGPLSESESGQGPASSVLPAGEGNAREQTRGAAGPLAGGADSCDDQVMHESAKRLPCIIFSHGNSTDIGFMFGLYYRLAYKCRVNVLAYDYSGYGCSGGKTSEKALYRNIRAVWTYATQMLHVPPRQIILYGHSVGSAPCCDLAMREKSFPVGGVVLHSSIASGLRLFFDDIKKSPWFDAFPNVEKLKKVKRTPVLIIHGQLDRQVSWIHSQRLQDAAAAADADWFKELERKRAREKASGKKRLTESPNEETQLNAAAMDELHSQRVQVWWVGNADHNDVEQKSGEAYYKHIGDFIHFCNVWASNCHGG
UniProt A0A125YUF0: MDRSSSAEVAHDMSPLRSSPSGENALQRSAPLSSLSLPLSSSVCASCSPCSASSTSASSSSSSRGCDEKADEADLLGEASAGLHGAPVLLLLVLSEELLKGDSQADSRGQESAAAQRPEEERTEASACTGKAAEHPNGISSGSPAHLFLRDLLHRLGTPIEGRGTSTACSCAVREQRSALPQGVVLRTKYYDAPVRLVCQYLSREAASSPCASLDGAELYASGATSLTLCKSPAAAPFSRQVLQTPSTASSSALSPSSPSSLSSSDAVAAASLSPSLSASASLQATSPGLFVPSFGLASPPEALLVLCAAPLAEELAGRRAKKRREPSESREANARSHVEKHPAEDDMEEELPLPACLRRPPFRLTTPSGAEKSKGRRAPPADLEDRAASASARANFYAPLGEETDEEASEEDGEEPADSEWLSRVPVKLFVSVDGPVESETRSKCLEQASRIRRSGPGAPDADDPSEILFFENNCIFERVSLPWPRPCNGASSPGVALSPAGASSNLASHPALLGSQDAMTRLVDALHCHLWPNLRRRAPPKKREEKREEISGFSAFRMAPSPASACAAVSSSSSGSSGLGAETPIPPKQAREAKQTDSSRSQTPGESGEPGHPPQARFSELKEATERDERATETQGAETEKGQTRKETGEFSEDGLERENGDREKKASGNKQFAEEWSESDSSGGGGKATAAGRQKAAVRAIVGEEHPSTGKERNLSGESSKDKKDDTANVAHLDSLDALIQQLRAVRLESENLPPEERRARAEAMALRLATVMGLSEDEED
UniProt S8F3K1: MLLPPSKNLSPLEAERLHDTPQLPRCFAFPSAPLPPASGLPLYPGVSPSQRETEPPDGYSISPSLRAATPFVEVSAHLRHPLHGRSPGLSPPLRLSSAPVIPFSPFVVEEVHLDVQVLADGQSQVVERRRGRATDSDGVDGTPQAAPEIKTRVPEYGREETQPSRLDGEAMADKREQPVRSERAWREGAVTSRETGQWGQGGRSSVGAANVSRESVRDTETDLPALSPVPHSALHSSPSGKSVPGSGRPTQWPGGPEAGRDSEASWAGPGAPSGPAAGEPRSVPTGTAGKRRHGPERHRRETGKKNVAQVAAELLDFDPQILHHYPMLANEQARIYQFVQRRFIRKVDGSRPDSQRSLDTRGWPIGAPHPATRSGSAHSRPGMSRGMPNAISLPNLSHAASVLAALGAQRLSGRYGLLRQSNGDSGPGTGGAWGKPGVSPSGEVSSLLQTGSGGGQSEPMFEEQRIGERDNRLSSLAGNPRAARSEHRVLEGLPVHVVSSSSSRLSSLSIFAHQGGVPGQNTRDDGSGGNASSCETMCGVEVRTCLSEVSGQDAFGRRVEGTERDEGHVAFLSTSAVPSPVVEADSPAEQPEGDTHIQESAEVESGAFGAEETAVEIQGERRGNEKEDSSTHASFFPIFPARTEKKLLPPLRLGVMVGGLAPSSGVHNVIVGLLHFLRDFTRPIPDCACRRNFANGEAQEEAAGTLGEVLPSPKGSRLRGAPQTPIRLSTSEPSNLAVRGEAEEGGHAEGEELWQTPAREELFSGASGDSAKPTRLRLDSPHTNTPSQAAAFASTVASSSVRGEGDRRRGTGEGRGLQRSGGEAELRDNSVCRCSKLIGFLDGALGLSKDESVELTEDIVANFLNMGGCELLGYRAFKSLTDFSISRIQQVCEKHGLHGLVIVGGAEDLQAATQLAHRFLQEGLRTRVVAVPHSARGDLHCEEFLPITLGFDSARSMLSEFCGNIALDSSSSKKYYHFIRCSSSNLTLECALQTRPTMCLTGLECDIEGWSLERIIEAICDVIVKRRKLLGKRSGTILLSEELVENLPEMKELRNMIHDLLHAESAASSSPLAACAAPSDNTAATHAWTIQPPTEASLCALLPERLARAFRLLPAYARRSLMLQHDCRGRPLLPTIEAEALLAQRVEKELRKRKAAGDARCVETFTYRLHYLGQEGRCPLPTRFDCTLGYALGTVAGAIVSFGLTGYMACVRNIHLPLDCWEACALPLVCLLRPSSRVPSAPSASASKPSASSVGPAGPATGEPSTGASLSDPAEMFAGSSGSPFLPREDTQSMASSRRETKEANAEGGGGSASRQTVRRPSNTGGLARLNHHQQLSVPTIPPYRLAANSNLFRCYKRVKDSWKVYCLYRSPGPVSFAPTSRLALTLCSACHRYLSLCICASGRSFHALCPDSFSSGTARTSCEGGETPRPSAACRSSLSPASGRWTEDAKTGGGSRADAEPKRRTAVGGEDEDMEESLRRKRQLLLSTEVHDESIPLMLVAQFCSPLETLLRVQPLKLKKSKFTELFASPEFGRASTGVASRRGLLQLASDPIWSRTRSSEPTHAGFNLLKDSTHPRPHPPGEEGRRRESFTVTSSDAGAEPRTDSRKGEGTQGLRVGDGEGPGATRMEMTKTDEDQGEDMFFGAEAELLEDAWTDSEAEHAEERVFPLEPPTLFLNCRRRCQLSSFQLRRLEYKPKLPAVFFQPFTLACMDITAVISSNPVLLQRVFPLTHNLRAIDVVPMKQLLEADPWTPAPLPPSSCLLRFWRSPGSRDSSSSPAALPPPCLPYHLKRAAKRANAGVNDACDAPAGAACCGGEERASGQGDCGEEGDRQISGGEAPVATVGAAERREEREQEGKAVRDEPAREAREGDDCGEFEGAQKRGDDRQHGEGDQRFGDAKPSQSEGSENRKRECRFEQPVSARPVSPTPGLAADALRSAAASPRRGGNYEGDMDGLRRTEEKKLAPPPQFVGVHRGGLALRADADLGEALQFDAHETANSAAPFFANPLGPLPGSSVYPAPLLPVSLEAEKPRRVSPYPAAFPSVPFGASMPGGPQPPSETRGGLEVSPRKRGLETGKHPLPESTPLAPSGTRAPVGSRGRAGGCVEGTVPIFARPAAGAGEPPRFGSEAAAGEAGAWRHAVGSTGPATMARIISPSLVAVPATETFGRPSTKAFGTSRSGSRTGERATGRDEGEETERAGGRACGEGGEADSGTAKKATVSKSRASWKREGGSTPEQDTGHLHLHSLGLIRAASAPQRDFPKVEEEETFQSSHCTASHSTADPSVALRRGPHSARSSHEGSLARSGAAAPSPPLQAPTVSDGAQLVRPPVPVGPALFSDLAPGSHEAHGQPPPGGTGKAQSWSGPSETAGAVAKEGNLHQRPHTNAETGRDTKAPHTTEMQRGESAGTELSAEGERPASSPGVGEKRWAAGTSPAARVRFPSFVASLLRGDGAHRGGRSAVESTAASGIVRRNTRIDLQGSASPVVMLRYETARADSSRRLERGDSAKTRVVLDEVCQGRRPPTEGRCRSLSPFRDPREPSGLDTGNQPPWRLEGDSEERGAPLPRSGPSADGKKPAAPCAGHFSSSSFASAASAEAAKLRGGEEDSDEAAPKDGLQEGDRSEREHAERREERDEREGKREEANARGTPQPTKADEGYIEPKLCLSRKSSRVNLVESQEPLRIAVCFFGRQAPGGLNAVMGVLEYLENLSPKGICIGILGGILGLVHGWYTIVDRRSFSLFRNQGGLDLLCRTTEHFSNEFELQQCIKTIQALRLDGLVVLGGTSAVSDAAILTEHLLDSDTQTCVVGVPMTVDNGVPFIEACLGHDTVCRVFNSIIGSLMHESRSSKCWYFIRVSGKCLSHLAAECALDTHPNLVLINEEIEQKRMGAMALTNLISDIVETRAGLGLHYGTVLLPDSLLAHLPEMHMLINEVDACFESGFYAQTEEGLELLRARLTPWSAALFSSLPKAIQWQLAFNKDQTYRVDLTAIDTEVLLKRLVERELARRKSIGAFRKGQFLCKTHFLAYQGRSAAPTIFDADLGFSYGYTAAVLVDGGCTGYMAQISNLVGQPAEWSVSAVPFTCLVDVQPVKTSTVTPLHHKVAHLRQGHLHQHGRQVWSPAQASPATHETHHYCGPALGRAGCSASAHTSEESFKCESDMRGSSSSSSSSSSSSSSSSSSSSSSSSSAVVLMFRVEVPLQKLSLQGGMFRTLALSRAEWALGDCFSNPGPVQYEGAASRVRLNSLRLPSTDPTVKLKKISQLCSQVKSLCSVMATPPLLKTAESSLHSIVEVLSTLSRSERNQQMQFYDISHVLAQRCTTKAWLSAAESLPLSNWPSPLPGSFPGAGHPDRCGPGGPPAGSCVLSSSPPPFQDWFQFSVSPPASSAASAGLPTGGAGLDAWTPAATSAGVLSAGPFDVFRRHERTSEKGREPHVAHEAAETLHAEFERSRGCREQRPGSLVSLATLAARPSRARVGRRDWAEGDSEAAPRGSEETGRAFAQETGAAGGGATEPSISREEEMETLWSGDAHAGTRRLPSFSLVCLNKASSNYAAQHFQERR
UniProt A0A125YV39: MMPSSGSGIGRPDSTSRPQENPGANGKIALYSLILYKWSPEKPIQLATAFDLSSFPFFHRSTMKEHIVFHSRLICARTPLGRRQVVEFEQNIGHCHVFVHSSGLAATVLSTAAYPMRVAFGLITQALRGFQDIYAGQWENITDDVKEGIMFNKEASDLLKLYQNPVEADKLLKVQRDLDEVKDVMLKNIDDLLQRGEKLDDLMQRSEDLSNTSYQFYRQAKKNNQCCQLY
UniProt A0A125YWQ9: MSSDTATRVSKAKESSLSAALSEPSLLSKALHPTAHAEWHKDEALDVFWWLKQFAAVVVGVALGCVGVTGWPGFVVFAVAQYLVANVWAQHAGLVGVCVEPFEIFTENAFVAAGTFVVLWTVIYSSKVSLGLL
UniProt A0A125YV97: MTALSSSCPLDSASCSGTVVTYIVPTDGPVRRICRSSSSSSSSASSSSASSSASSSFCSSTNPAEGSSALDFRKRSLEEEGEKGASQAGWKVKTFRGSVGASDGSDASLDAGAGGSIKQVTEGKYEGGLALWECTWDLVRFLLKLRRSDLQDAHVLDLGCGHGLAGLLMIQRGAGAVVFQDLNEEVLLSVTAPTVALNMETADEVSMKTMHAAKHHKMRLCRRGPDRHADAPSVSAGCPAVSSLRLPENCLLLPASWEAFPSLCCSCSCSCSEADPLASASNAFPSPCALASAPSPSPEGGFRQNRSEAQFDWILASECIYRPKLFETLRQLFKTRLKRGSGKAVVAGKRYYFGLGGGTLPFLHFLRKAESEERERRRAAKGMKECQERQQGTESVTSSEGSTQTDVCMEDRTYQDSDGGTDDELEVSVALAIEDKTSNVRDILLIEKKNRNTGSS
UniProt A0A125YH38: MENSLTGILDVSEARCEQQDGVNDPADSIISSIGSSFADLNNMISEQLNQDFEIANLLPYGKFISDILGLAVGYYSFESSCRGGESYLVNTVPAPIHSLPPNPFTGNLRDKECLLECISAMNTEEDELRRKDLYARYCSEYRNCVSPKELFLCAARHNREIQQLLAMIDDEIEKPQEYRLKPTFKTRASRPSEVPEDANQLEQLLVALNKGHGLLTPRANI
UniProt A0A125YQJ7: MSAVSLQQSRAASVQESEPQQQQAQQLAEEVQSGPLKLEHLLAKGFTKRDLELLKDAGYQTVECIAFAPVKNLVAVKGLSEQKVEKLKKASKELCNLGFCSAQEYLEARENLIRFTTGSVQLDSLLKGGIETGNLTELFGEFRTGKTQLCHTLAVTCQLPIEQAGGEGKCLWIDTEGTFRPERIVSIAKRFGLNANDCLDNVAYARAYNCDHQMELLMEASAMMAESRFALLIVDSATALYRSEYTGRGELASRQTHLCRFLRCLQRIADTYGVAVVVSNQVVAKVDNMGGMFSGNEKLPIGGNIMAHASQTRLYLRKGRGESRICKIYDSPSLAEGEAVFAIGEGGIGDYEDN
UniProt A0A125YWZ9: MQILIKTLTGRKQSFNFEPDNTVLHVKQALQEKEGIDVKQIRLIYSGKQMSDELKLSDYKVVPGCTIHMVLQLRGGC

B1: Uncharacterized protein TGME49_271600 (protein, UniProt S8G9T3 1-504)
chain: MTDVFDRPPDDYSKSRGIQITMIPTEREGRQPEEADGRLPEQHARSSSKVHDGGHCTEAGDMVDWSREQAIANQRNDKHENFLSSGGREDALPFACEEDMPEGGLQAHDEADNRATEAKLGSSLSSFSSLEEAFLTSLDVISSLRDAVTLLLRAQGVPTEGEGRHQQLNDYEQNVSRKQAMDVMVSTGAFSCHPQAYESLLKTGERTKGGKRLPGGESPGIANCVGIIADEHMSREEHAGAVKADRREHPCLTETVQDKISSSRHPAGEQERRRGTLECCTHSLNSDYELSICKALLMLQHIGGPEESKPMGVDPPLGGFPLLSQERGSFPLGVVDDGGPAHLRQGRQRSPELEPIATQPLSQHLRTTTDGAGDRHAGAEACCSSFDQLQAMRIRGKAGDGAPASDLGLSFASFTLDKMKNSVDQSETKKHVRTVDLMQMLLKVRLLRQAHLLLRADVLVMRKQQGLQQERLNRALQAAVKRHESERDSLLCRLQKLASLLQKK
B2: Peptidase family M3 protein TGME49_272670 (protein, UniProt S8GJE2 1-1094)
chain: MHARSGLLLRGVQAAGGRAHHQRSDSLPSVLVMRSRRSLPPRNSLSASVSSPPVFFLPRSLCRNNSSGTRSSHSSSLTFHRVPPASSTLERRTLRRPFASLSRLSHSGQSEWRRQPHGLCSSPPCFSSTFPTPSPPRKPGLFSFLSGLTQISSRGSRAAGSDELRPGLLQLPGVHTPEQLVRLGRQAVADCEAFLATGGAPTSSSSGSREEGKLSSPSSCPSSASSGDASDVSSSWKEARRAVQALDAVSNTLCKVADGSELLRQVHPDPRWKQAGAEVVAHVQDFMSRVNVNNKVYDKLHRLTEALGDSLSREAQAPSCLSLPSSSTSASSSPSTSYPSSSSLPSSLSSSLSASPSSASSEDEGNMAEGDEGAGVSSAQTENAEKHRLTTEEILVLRSMRDAMEQQGVFLEPQVKDRYLRLLTEEATLAAGIAERQETPQSTEGFLVSTDVLLASGVPASLLAQLQGEKRSFFSPRRRPLCRRGGSGGDQVLVAAHSELAHVILRQSADSGLRREVYELQRLPGKDDKETEKQLLRLLHLRQELAKLRGYPTWTAYAQRDGILKTPDKINAFLSRLLDALRPGVESDLKTLSVFGASSGLLRDAKGLDPWDLPFLLRAYSVRTPDGSTGARSISIRDLLEGMQSVVERLLGLRFVRAPTAKGETWHWSVLRYELHEAPSSRASRLFSFSPSSSASPPSSSLDASSSSLRGVLYLDLWARPSKTRLLAQFTVRGSKRLSYAHGQGWRLGGPLWLSAVQRLSREGAASEDEASATATVAVEEELRQIPCAALVCSLPPPPEVDMTQPTGPDVDRLLEATSLSASLTRSLLHECGHVLHSLLSETELQHLSGTRGAVDFAEFPSNLFEHFSAPLLDGYLASPTRRARPALGSDGRGKACNFAHLGALQLLLHACVDQAFYSFVPGVSELPPCSGDARAPSPPPEAVDAQLAALRGCLDTAFSRHHWLAGDPRPGVTEQPICDVVGRPQMARFEHLVHYGGSYFCYLLCRVMSSFAWQHAFAKDPFDRETGKRLHAILRRGSIDCSLRPILELAGPGVLSETQKEQLLNNPHLLPVEPFLEELHADDASAAAELPFP
B3: Heat shock protein hslv, putative (TGME49_272230) (protein, UniProt S8GJ86 1-338)
chain: MAVCAAFRRFRLDGPLCSSAFPGRSRGATWMLSSACCSKRNYSASPQTPFSFQNGRAVCNRAVVGDSSSSSSARRFFSASSKFPFAAPSLSQSPSRFSGTRRLYTYGAPAAGGVEHCAGFDRSRFTASPFVPPRHATTILCVRKGDQVCVAGDGMVSQGQMIVKPNARKVRRLQDGVVCGFAGATADCFTLLEKLEAKLEEYPGQLLRSCVELAKQWRTDRYLRHLEAVLIVADKKMSLEVSGVGDVLESHDGILGVGSGGPYAVAAARALYDIDGLSAHEICKRSMAIAASMCCHTNDRVIFEVLENEAKPMETPQSSPVSTDVRQISDSSSAQTSP
B4: Thiamine diphosphokinase TGME49_215250 (protein, UniProt S8G4A8 1-816)
chain: MRADDAAIPSSRPQPSNSLVTQRSLLSSSCFFFFFLLFVFFFLSAVVPSPLAFRDARAAPLHLGTRSVKMRLLAQCLGDRRSSLSLHPPPVFAASVSAKRLNRTSEDKAGHSIKSKERKRGENSRGESQWGEHPRGEGQEIKESSLCNTEQRGNAHSQESFKIYTLLACASPLFLSRLSYGLFPSAFLPAAFFSPYESRTFFSSAHRLASQLTPSLVTPTTMPRIRFTAAGSSFSQTFRTPSCSSYRHRLYSSHRLFFPRPSSVPLSSPRSPFPLICPPSFSCYTLPLTSLPCSSRSCSSLAPSWFAASRCQPAPLSPSLRFPDTVSRRHWEEASFTMPASGVRSTPAEVSPRFSRAPCPLLFCPSPPRKEGGLACTPQRARNLTTAVKHEETENLRDLRLLEQWFLPASPSSSLHSSCPPSSSPPSLSSSSSPPSSSYSSSSPSARLFVLVLNRPLPAYAQRLLASCTSYVVSDGGGNALLELFQKEEEAARRARQADGLQEAADSGCHEAARSCEVFGEEDPKSSETQDGRPGSCVDWRDKEGRPANRRGATKLPEALCGDLDSLSDEAKEYFETRGVPVLWWEDQDLPDVEKAWRLLLAPKRFSSNDVVIILGAIGGRLDHTLCAIHVLYKLTAEHEAAEARAKAVEKREGNGEESREGQRGNATPASGKSAADGSGVSPPCRPPARVGPLPQIYLLGEDSLCFLVSKGRTRVIPSDLLITRQCALIPCGEAVSGVTTEGLRWNLTPDMRLNFGEFISTSNQISEEVLASAKSRTDASCGVSIDAAMPLLWYSQMRLQPSGAFEPPLEKSHES
B5: Uncharacterized protein TGME49_234560 (protein, UniProt S8EWL5 1-1285)
chain: MATSLHSRLVAAMPRNPAELSRAFDLDDMVQKKPRRQSSGVVVPGGARGLVVRTYRGILDGSEDEDPDSVNPEAHEVQVAWADGSVENIAREQIELLDRPFYAGDLVVGQDGKSLGLVVEVKQIADVRLVSSRATRRPSALAGRASRSSVLSVDSVSSFSSRLATRGPRGVSAAALPLADPLEPVRLEGLQINALGSLPLPHEPPLLRPLQAFEVGTPVIKGGHLGAVINCKVDYLVKLDSGHEFTLEHGMEGVRPDPRQGYPTEAYGLFPSQRIYVTGEWLRDFQEQLQTRQERRERAGEAEEDTVEAHRLCRGVVKSFAVRRVKVNWLLEDSETWSSAPPSQPLASQATEHDCSELLPLQQFVLRLGQPVYVNIRHNPTASLLAAVNPPLNGSSLNASAVHSSPPNASSLNASSSNGSSVNISAVNASLAPCVFQSVLPSSEAGVSPELKRSALDAAETVSEDPHSVSNPTLITNSSSSSSSSPASSSSSSLSCSSSASPEDPLYRLGVVESVSTRCCVLWEDGRVSQEAGRALTPVNVDRVPLAHSEFVVGLAILPHMFVTKKFTQDDLESAAREEEAAETRARAAGPAWWNAPYFGDTELGPHTSVPDELKAVEVVRALSKVSREIGIAEYLGRTPLEVSPFDSHSRDRAHRSDRGAERAGDRATDRGSERAGERGEREQRERGQERRGGFPAGRRRERRGRDGELRQGDRETGQPPRETDVAETRPAAEEHNPEQPGQERGENGDRANERGDASVEQGGGVSSDEDAWEDCGSEEGSAESEANGSARQEPLGIREARLPCGLGPGLVTGASVRDAVGHLQELFQCLQDAVGPANLGLPIYKRVPVLRSVPVSDEGEERRDPRAEGSGDAGAEPRGTPEPSARSEANAESAQKANPTWSRHSSDGSSDASSSCPRAVVRRSRSPEAEAPARLHALVGRMESGEWRRELFQLVEFVRMASPSAAGDGSWALDTAQMQGVLNCVMALRGEAALAALNRARGREAREVGVVVRVDSKEKQATVAWLADPQAFFDRARRLREKMAETDEERSGKDLARVTERQLARFGIAMWCGGRQEPPRDDAAGALYTTTAEDYTADEVAELVRMETVPLAELSPLSRFLFFPGDCALLVDDAARLAGESKSGRDDESSSLEQRENAKKDKVYLQVLAACGGLVWCRTFDGRVAPFAPTELVPLNTRWCDMELSYEESSDEESEYSEADSDGSSEDDSEDRETQSYESSDLDEWGSDSGSTNVTDLSDPVGNGPSRCSSVERMSDRSQDVAGG

Target: FLAG-BirA*-MOB1 (Toxoplasma gondii MOB1 fused to the C-terminal end of FLAG-BirA*) (Toxoplasma gondii)
Experiment: proximity labelling; BioID: FLAG-BirA*-MOB1 (control: FLAG-BirA*) tachyzoites in HFF cells, 150 µM biotin for 56 h; lysate in sucrose-based lysis buffer on agarose-streptavidin beads overnight at 18 °C; nanoLC-MS/MS; three biological replicates

Molecule	binding
AB hydrolase-1 domain-containing protein TGME49_223510 (from UniProt A0A125YJT8)	binds
Aspartyl aminopeptidase TGME49_297970 (from UniProt A0A125YW18 1-508)	binds
Uncharacterized protein TGME49_309890 (from UniProt S8EYN6 1-3142)	binds
Uncharacterized protein TGME49_309050 (from UniProt A0A125YUF0 1-784)	binds
Anaphase-promoting complex subunit1 (from UniProt S8ESM4)	binds
FHA domain-containing protein TGME49_262780 (from UniProt S8GCY7 1-1843)	binds
Phosphofructokinase domain-containing protein TGME49_281400 (from UniProt S8F3K1 1-3562)	binds
Uncharacterized protein TGME49_268320 (from UniProt S8F435 1-2061)	binds
SNARE protein TGME49_215420 (from UniProt A0A125YV39 1-230)	binds
Uncharacterized protein TGME49_222090 (from UniProt A0A125YWQ9 1-133)	binds
Uncharacterized protein TGME49_210345 (from UniProt S8F0M9 1-3457)	binds
Uncharacterized protein TGME49_312410 (from UniProt A0A125YV97 1-456)	binds
Eukaryotic translation initiation factor 2A (from UniProt S8GDZ2 1-1821)	binds
Mediator complex subunit MED8 (from UniProt A0A125YH38)	binds
DNA repair protein RAD51 (from UniProt A0A125YQJ7 1-354)	binds
Ubiquitin family protein TGME49_254600 (from UniProt A0A125YWZ9 1-77)	binds
DEAD/DEAH box helicase domain-containing protein TGME49_260450 (from UniProt S8GCG2 1-1841)	binds
B1	binds
B2	binds
B3	binds
B4	binds
B5	binds

No constants are given. Whether binding was seen depends on the method and setting. Binding seen in cells or lysates may run through a third protein. Here binding means that the protein was enriched with, or labelled near, the bait; the list need not be complete.
